# Measurements as given in PubChem BioAssay AID624297 (National Center for Advancing Translational Sciences (NCATS), 2012).
# Several values for one entry are separate records, joined by “and”; a condition that tells them apart may be missing. Equal values may be shown once. About 6,200 (1.8%) of roughly 340,000 compounds were called active. The inconclusive results got no clear call from the source; some entries with a clear call stand among them for comparison. The call rests on the fitted dose curve; in most records, active means well fitted activation curve with a large enough effect; inconclusive means small, poorly fitted or top-dose-only effect; inactive means no such curve, though single readings can be large or run the other way. Where the call is inconclusive, the potency comes from a doubtful curve fit.
# Experiment: A quantitative high throughput screen for small molecules that induce DNA re-replication in SW480 colon adenocarcinoma cells. Further: nearly all actives have a fitted effect of over 55% in size. On re-replication activation: % of control where 0% means no effect.
# Settings: Hoechst DNA content imaging, 48 h; re-replication activation: at 46.1 µM (top of the series)
# Method in brief: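 SW480 cells exposed to compounds for 48 hr at 37 C, 5% CO2, then Hoechst-stained 40 min. Nuclear DNA content imaged by fluorescence scanning (405 nm excitation, 500-530 nm emission); re-replication scored as increased high-intensity nuclei.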
# Potency means the concentration at half of the fitted maximal effect.
SMILES,Potency,re-replication activation
C=CCN(c1ccccc1OC)S(=O)(=O)c1cccc(C(=O)OCC(=O)c2c[nH]c3ccccc23)c1,"inconclusive: 5.8 µM [activator, partial curve, poor fit]",
Cc1cc(OC(C)C(=O)NCc2ccccn2)c2c(C)c(Cc3ccccc3)c(=O)oc2c1 (stereo not given),"inconclusive: 29.1 µM [activator, single point]",
COc1ccc(CCNc2c3ccccc3nc3ccccc23)cc1OC,active: 0.92 µM,
COc1ccc(NS(=O)(=O)c2cccc(NC(=O)NC3CCCCC3)c2)cc1,,inactive: -2.01%
CCCCC(=O)Nc1nn(CC)c2nc3c(C)cccc3cc12,"inconclusive: 18.4 µM [activator, single point]",
Cc1cccc(NC(=S)NCc2ccc3[nH]c4c(c3c2)CCCC4)c1,"inconclusive: 29.1 µM [activator, single point]",
C=Cc1ccc(CSc2cc(C)nc3nc(C)nn23)cc1,"inconclusive: 16.4 µM [activator, single point]",
O=Cc1cn(CC(=O)N2CCCCC2)c2ccccc12,,inactive: -3.93%
O=c1ccc(-c2ccc(S(=O)(=O)NCC3CCN(Cc4cccc(F)c4)CC3)s2)n[nH]1,"inconclusive: 18.4 µM [activator, single point]",
O=C(CN1C(=O)C(=O)N(Cc2ccccc2)C1=O)Nc1cc(Cl)cc(Cl)c1,active: 18.4 µM,
O=C(O)c1c(-c2ccccc2)nnc2ccccc12,"inconclusive: 0.13 µM [activator, full curve, poor fit]",
O=C(N/N=C/c1cccc(O)c1)c1csc2ccccc12,,inactive: -5.13%
Cc1cc(C(=O)OCc2nc3ccccc3s2)c(C)o1,"inconclusive: 6.51 µM [activator, partial curve, poor fit]",
Cc1ccc(NC(=O)/C(Cl)=C\c2ccccc2)cc1,,inactive: -4.49%
O=c1nc(Nc2cccc(Cl)c2)oc2cc(Cl)oc(=O)c12,,inactive: 17.8%
CC1CCN(C(=O)C(NS(=O)(=O)c2cccc3nsnc23)C(C)C)CC1 (stereo not given),,inactive: -22.3%
COc1cc(OC)cc(C(=O)Nc2ccc(C(=O)Nc3ccccc3OC)cc2)c1,"inconclusive: 29.1 µM [activator, single point]",
N/C(=N\OC(=O)c1ccc([N+](=O)[O-])cc1Cl)c1ccccn1,"inconclusive: 16.4 µM [activator, single point]",
CCCCOCCCNC(=O)C1CCCCC1,"inconclusive: 16.4 µM [activator, single point]",
CCOC(=O)CCCCC1C(CCCC(=O)OCC)C=NN1C (stereo not given),"inconclusive: 2.91 µM [activator, partial curve, poor fit]",
O=C(COC(=O)c1ccc(O)cc1)Nc1ccc2c(c1)OCCO2,"inconclusive: 4.61 µM [activator, full curve, poor fit]",
CC1(c2ccccn2)Nc2ccccc2-c2nc3ccccc3n21 (stereo not given),,inactive: -7.12%
CCOc1cccc(NC(=O)/C(C#N)=C\c2cccnc2)c1,,inactive: -0.118%
CCOC(=O)C1=C(C2=CCCCC2)c2ccc(OC)cc2N(S(=O)(=O)C(F)(F)F)C1C(=O)OCC (stereo not given),active: 10.3 µM,

SMILES,Potency,re-replication activation
O=C(Nc1ccccc1)c1ccc(Cn2cc(C(F)(F)F)ccc2=O)cc1,,inactive: 0.736%
Cc1cc(NCc2ccccn2)n2ncc(-c3ccc(Cl)cc3)c2n1,"inconclusive: 4.61 µM [activator, single point]",
COc1ccc(-n2cc(CNCC3CCOCC3)c(-c3cccc(F)c3)n2)cc1,"inconclusive: 29.1 µM [activator, single point]",
Cc1ccccc1Cn1c(=O)n(CCCC(=O)NCc2ccco2)c(=O)c2sccc21,"inconclusive: 29.1 µM [activator, single point]",
CCCCN(C(=O)CSc1nnc(-c2ccc(OC)cc2)n1C(C)C)c1c(N)n(Cc2ccccc2)c(=O)[nH]c1=O,,inactive: 1.93%
O=[N+]([O-])c1ccc(Sc2cccc3cccnc23)cc1,,inactive: 1.5%
Cc1ccc(/C=C2/Sc3ccc(C(=O)N4CCN(C)CC4)cc3NC2=O)cc1,"inconclusive: 14.6 µM [activator, partial curve, poor fit]",
CCc1cc2c(CN(C)Cc3ccccc3F)cc(=O)oc2cc1O,"inconclusive: 11.6 µM [activator, partial curve]",
CCCc1cc(-c2nc(N)ncc2-c2ccc3c(c2)OCCCO3)c(O)cc1OC,"inconclusive: 29.1 µM [activator, single point]",
COc1ccc(NC(=O)COC(=O)c2cc(OC)c(OC)cc2NC(=O)c2ccco2)cc1OC,active: 10.3 µM,
NC(=O)c1c(NC(=O)c2cc3ccccc3o2)sc2c1CCC2,"inconclusive: 29.1 µM [activator, single point]",
COc1ccc(NC(=O)COC(=O)CCNS(=O)(=O)c2ccc(Cl)cc2)cc1,"inconclusive: 18.4 µM [activator, single point]",
CCOc1ccc(-n2c(=O)c3ccccc3c3ccccc3c2=O)cc1,"inconclusive: 9.2 µM [activator, partial curve]",
COc1ccc(CCNC(=O)CCC(=O)N2CCOc3ccccc32)cc1OC,,inactive: -3.99%
CC(C)Cc1nc2oc3c(N4CCN(CCO)CC4)ncnc3c2c2c1CCCC2,"inconclusive: 29.1 µM [activator, partial curve, poor fit]",
Cc1ccnc(NC(=O)Cc2ccc(-c3ccccc3)cc2)c1,"inconclusive: 29.1 µM [activator, single point]",
CCOC(=O)COc1ccc2ccccc2c1/C=C/[N+](=O)[O-],"inconclusive: 23.1 µM [activator, single point]",
Cc1cccc(C)c1N1CCN(S(=O)(=O)N(C)C)CC1,,inactive: -0.581%
COc1cc(C(=O)ON=C2C=C(C)C(=O)C(C)=C2)cc(OC)c1OC,"inconclusive: 20.6 µM [activator, single point]",
CCN1C(=O)[C@H]2[C@H]3CN=C(SCC4CC4)N3[C@@](CC)(C(=O)OC)[C@H]2C1=O,"inconclusive: 0.651 µM [activator, single point]",
Cc1cccc(CN2CCCC(C(=O)N3CCc4ccccc4C3)C2)c1 (stereo not given),,inactive: -0.88%
Cc1ccc2nc(-c3cccc(NS(C)(=O)=O)c3)cc(-c3ccccc3)c2c1,"inconclusive: 29.1 µM [activator, single point]",
COc1ccc(C2CC(c3ccccc3)=NN2S(=O)(=O)c2ccccc2)cc1 (stereo not given),"inconclusive: 29.1 µM [activator, single point]",
CC(C)C(NC(=O)c1ccccc1)C(=O)OCn1nnc2ccccc2c1=O (stereo not given),"inconclusive: 18.4 µM [activator, single point]",

SMILES,Potency,re-replication activation
C=CCSc1nnc(COc2ccc(=O)n(-c3ccccc3)n2)n1CC,,inactive: 0.92%
CC(NCc1ccc(F)cc1)C(=O)Nc1cc(S(=O)(=O)N2CCCCC2)ccc1Cl (stereo not given),"inconclusive: 5.8 µM [activator, full curve]",
Cc1ccc(-c2nnc(Nc3ccc4c(c3)OCO4)c3ccccc23)cc1S(N)(=O)=O,,inactive: 1.71%
Cc1cc(NC(=O)c2ccc3nc(-c4ccccc4)c(-c4ccccc4)nc3c2)no1,"inconclusive: 2.59 µM [activator, full curve, poor fit]",
C[C@H](CO)N1C[C@H](C)[C@@H](CN(C)S(=O)(=O)c2cn(C)cn2)Oc2c(NS(=O)(=O)c3cccs3)cccc2C1=O,"inconclusive: 7.31 µM [activator, partial curve, poor fit]",
Clc1ccccc1/C=N/Nc1cc(N2CCOCC2)ncn1,,inactive: 1.36%
Nc1c(C(=O)NCC2CCCO2)c2nc3ccccc3nc2n1-c1ccccc1 (stereo not given),"inconclusive: 23.1 µM [activator, single point]",
CC(=O)O[C@]1(C(C)=O)CC[C@H]2[C@@H]3C[C@H](C)C4=CC(=O)CC[C@]4(C)[C@H]3CC[C@@]21C,"inconclusive: 22.4 µM [activator, partial curve, poor fit] and inconclusive: 11.6 µM [activator, single point]",
O=C(CCC(=O)Nc1ccc(Br)cc1)N/N=C/c1ccccc1O,"inconclusive: 3.66 µM [activator, full curve, poor fit]",
N#CC1=C(N)c2ccccc2CC12CCCCC2,,inactive: 1.75%
COc1cc(NC(=O)c2ccc([N+](=O)[O-])cc2)ccc1NC(=O)C(C)C,,inactive: 2.17%
Cc1ccccc1OCC(=O)NC(=S)Nc1ccccc1N1CCN(S(C)(=O)=O)CC1,,inactive: 9.84%
Cc1sc2nc(CN3CCOCC3)nc(N3CCOCC3)c2c1C,,inactive: -1.72%
O=C(CN1C(=O)C2(OCCO2)c2cc(Br)ccc21)NO,,inactive: 4.86%
N#CCC(=O)Nc1ncc(Cc2ccccc2Cl)s1,"inconclusive: 32.6 µM [activator, partial curve, poor fit]",
O=C(Nc1ccc(S(=O)(=O)NCC2CCCO2)cc1)C1CC(=O)N(c2ccccc2)C1 (stereo not given),"inconclusive: 29.1 µM [activator, single point]",
COc1cc(NC(=S)Nc2ccccn2)cc(OC)c1OC,,inactive: -15.5%
COCCNC(=O)Cn1ccc2cc(S(=O)(=O)N3CCCCCC3)ccc21,,inconclusive: -31.5% [activator]
COC(=O)C1=C(C)NC(=O)CC1c1cc(Br)ccc1F (stereo not given),,inactive: -0.264%
O=C1NC2=C(C(=O)CCC2)C(c2ccccc2[N+](=O)[O-])N1 (stereo not given),"inconclusive: 23.1 µM [activator, single point]",
CCC(=O)Nc1c(S(=O)(=O)c2ccccc2)c2nc3ccccc3nc2n1C(C)c1ccccc1 (stereo not given),"inconclusive: 22.4 µM [activator, single point]",
O=C(COc1ccccc1)Nc1ccccc1N1CCCCC1,,inactive: 0.926%

# Quoted from the listing.
# For Potency, O=C(Nc1ccc(S(=O)(=O)NCC2CCCO2)cc1)C1CC(=O)N(c2ccccc2)C1 (stereo not given) has the entry inconclusive: 29.1 µM [activator, single point]
# For Potency, O=C(CCC(=O)Nc1ccc(Br)cc1)N/N=C/c1ccccc1O has the entry inconclusive: 3.66 µM [activator, full curve, poor fit]
# For Potency, Cc1cc(NC(=O)c2ccc3nc(-c4ccccc4)c(-c4ccccc4)nc3c2)no1 has the entry inconclusive: 2.59 µM [activator, full curve, poor fit]
